Results on twelve sequences are retold here after the supplement of paper PMC10338343.

± gives the standard deviation. Only a part is listed here, and it is no random draw. Many entries were measured with a wide error.

Assay [1] has as its system MILI (PIWIL2) piRISC loaded with piRNA #1 (26 nt). The assay is described as follows: pre-steady-state target cleavage rate (min^-1); higher = faster piRNA-guided slicing of the target. To be noted: guide: piRNA #1 5'p-UGAGGUAGUAGGUUGUAUAGUAUCCA; auxiliary factor: 500 nM mouse GTSF1. The gist of the method: (§1)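 In Cleave-'n-Seq, a transcribed, DNA-blocked target RNA library (0.1 nM) was combined with 1 nM active affinity-purified piRISC bearing one synthetic guide, with or without 500 nM GTSF1 partner protein. Reactions ran in HEPES–potassium acetate buffer at 33 °C for 0–8 or 0–960 min. Uncleaved targets were sequenced and normalised to depth and to weakly complementary targets, three trials were pooled, and k3 was capped at 0.0001 min^-1. The pre-steady-state cleavage rate was obtained by fitting a burst-and-steady-state model.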

The subject of assay [2] is EfPiwi piRISC loaded with piRNA #1 (26 nt). The assay can be described thus: pre-steady-state target cleavage rate (min^-1); guide: piRNA #1 5'p-UGAGGUAGUAGGUUGUAUAGUAUCCA; MIWI and MILI are mouse PIWI proteins and EfPiwi is from a freshwater sponge; tags in brackets are library labels; higher = faster piRNA-guided slicing of the target. To be noted: auxiliary factor: 500 nM Ephydatia muelleri Gtsf1. In a few lines: as §1

Consider GGAGACGAUACUAUAGAACCAACUACCUCA, for which the results for the “pre-steady-state target cleavage rate” value in assay [1] and in assay [2] were 0.00326 ± 0.0028 and 0.00377 ± 0.002, respectively.
Consider GGAGACGAUACUAUACCAACCUACUACCUCA, for which the “pre-steady-state target cleavage rate” value in assay [1] was determined as 0.0605 ± 0.013; in assay [2], 0.0123 ± 0.0043.
For GGAGAGUGAUACUAUACAACCUACUACCUCA, the “pre-steady-state target cleavage rate” value in assay [1] is 0.227 ± 0.016; in assay [2] it was 0.171 ± 0.053.
In the same order, the values of GGAGACGAUUCUAUACAACCUACUACCUCA are 0.209 ± 0.013 and 0.0774 ± 0.03.
Turning to GGAGACCAUACUAUUCAACCUAGUACCUCA, the “pre-steady-state target cleavage rate” value in assay [1] turned out to be 0.0559 ± 0.011; in assay [2] it was 0.00166 ± 0.0022.
In the same order, the values of GGAGACCAUACAAUACAAGCUACUACCUCA are 0.205 ± 0.016 and 0.00223 ± 0.0036.
The corresponding values for GGAGUGGAAACUAUACAACCUACUAGCUCA are 0.0453 ± 0.013 and 0.00278 ± 0.0045.
Consider GGAGACCUAACUAUUCAACCUACUACCUGA, for which the “pre-steady-state target cleavage rate” value turned out to be 0.0858 ± 0.03 in assay [1] and 0.00317 ± 0.0044 in assay [2].
For the sequence GGAGACGAUACAUAUACAACCUACUACCUCA, the entries for the “pre-steady-state target cleavage rate” value in assay [1] and in assay [2] were 0.111 ± 0.013 and 0.00804 ± 0.0033, respectively.
In the same order, the values of GGAGAGGAUACUAUACAACCUACUACUUCA are 0.153 ± 0.015 and 0.121 ± 0.05.
On to GGAGACCUAUGAUAUCAACCUAGAUCCUCA, for which the “pre-steady-state target cleavage rate” value came to 0.000108 ± 0.028 in assay [1] and 0.000116 ± 0.019 in assay [2].
In the same order, the values of GGAGACCUUACUAUACAACCUACUACUCUCA are 0.242 ± 0.025 and 0.0031 ± 0.0038.
